According to patent US20030028002A1:
Results are given in words; binding and its absence hold for the method and conditions named. For part of these data: In cells and extracts the contact can be indirect. Some entries that bind do so weakly or less than the wild type. For part of these data: Tags and fused reporters may be left off the sequences shown.

By UniProt entry, the sequences of proteins in these tests, tags left out. Where a name states a change or a piece, a line headed by the entry shows the natural chain unless it says otherwise.
UniProt P04386: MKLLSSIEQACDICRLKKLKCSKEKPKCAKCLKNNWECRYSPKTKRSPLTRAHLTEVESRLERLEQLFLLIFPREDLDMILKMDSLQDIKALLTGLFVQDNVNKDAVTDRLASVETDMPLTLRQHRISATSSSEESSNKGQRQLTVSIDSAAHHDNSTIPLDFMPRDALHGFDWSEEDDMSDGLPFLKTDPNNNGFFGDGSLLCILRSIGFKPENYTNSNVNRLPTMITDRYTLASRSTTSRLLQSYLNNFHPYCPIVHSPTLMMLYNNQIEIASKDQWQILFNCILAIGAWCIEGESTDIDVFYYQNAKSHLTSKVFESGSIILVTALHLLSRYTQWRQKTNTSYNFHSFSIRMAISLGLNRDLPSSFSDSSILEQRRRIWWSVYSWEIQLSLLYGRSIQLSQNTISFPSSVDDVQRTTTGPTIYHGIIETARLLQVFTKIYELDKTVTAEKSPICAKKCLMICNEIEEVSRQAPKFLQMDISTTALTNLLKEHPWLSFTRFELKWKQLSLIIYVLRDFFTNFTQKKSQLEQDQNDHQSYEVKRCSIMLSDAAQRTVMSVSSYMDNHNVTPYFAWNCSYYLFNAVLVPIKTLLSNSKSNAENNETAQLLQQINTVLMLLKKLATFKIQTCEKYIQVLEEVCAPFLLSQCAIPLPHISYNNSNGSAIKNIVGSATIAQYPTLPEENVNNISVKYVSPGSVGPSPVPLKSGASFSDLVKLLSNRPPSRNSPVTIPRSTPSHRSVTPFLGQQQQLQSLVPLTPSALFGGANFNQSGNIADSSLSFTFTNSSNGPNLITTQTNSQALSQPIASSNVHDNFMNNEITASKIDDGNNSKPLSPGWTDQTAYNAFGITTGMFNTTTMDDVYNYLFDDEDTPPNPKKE
UniProt P30280: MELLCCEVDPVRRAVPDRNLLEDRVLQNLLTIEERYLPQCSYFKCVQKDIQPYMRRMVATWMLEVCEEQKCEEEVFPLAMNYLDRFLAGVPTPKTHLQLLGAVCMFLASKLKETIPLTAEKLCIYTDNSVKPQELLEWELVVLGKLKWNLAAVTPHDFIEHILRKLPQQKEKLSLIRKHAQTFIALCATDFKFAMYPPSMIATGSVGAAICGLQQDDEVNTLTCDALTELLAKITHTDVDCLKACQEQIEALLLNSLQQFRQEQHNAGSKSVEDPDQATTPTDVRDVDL
UniProt P25322: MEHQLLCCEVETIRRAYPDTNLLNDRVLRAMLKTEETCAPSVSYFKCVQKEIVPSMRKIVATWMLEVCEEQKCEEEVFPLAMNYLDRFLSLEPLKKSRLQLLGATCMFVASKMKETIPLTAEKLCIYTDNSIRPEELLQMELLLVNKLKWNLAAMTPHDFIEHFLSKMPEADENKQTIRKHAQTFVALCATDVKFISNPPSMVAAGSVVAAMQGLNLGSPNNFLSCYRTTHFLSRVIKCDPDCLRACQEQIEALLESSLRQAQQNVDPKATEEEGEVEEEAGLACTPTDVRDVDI

Tests used:
[1] = target: T1, GAL4 DNA-binding domain fused to full length mouse cyclin D2 (bait, pAS2cycD2) (yeast; mouse) (UniProt P04386+P30280); experiment: yeast two-hybrid
[2] = target: T1, GAL4 DNA-binding domain fused to full length mouse cyclin D2 (bait, pAS2cycD2) (yeast; mouse); experiment: yeast two-hybrid, GAL4 activation domain fusion against the GAL4 DNA-binding domain-cyclin D2 bait
cyclin D1 (mouse) = cyclin D1 (mouse) (UniProt P25322); experiment: coexpression in Sf9 cells, coprecipitation with antiserum to the DMP1 C-terminus

| Binder | binding [1] | binding [2] | binding (cyclin D1 (mouse)) |
| --- | --- | --- | --- |
| GAL4 activation domain fused to DMP1 residues 176-761 (clone from the two-hybrid screen) (protein, not shown: large carriers) GIKDATEIIFEMSKDERKDFYRTIAWGLNRPLFAVYRRVLRMYDDRNHVGKYTPEEIEKLKELRIKHGNDWATIGAALGRSASSVKDRCRLMKDTCNTGKWTEEEEKRLAEVVHELTSTEPGDIVTQGVSWAAVAERVGTRSEKQCRSKWLNYLNWKQSGGTEWTKEDEINLILRIAELDVADENDINWDLLAEGWSSVRSPQWLRSKWWTIKRQIANHKDVSFPVLIKGLKQLHENQKNNPVLLENKSGSGVPNSNCNSSVQHVQIRVARLEDNTAISPSPMAALQIPVQITHVSSTDSPAASADSETITLNSGTLQTFEILPSFPLQPTGTPGTYLLQTSSSQGLPLTLTTNPTLTLAAAAPASPEQIIVHALSPEHLLNTSDNVTVQCHTPRVIIQTVATEDITSSLSQEELTVDSDLHSSDFPEPPDALEADTFPDEIPRPKMTIQPSFNNAHVSKFSDQNSTELMNSVMVRTEEEIADTDLKQEEPPSDLASAYVTEDLESPTIVHQVHQTIDDETILIVPSPHGFIQASDVIDTESVLPLTTLTDPIFQHHQEASNIIGSSLGSPVSEDSKDVEDLVNCH | binds | binds |  |
| DMP1 (cyclin D-binding myb-like protein), murine, full length (protein, multiple phosphorylated forms when made in Sf9 cells (sites not given)) MSTVEEDSDTVTVETVNSVTFTQDTDGNLILHCPQNDPDEVDSEDSTEPPHKRLCLSSEDDQSIDDATPCISVVALPLSENDQSFEVTMTATTEVADDELSEGTVTQIQILQNDQLDEISPLGTEEVSAVSQAWFTTKEDKDSLTNKGHKWKQGMWSKEEIDILMNNIERYLKARGIKDATEIIFEMSKDERKDFYRTIAWGLNRPLFAVYRRVLRMYDDRNHVGKYTPEEIEKLKELRIKHGNDWATIGAALGRSASSVKDRCRLMKDTCNTGKWTEEEEKRLAEVVHELTSTEPGDIVTQGVSWAAVAERVGTRSEKQCRSKWLNYLNWKQSGGTEWTKEDEINLILRIAELDVADENDINWDLLAEGWSSVRSPQWLRSKWWTIKRQIANHKDVSFPVLIKGLKQLHENQKNNPVLLENKSGSGVPNSNCNSSVQHVQIRVARLEDNTAISPSPMAALQIPVQITHVSSTDSPAASADSETITLNSGTLQTFEILPSFPLQPTGTPGTYLLQTSSSQGLPLTLTTNPTLTLAAAAPASPEQIIVHALSPEHLLNTSDNVTVQCHTPRVIIQTVATEDITSSLSQEELTVDSDLHSSDFPEPPDALEADTFPDEIPRPKMTIQPSFNNAHVSKFSDQNSTELMNSVMVRTEEEIADTDLKQEEPPSDLASAYVTEDLESPTIVHQVHQTIDDETILIVPSPHGFIQASDVIDTESVLPLTTLTDPIFQHHQEASNIIGSSLGSPVSEDSKDVEDLVNCH |  |  | binds |
